Results as given in publication PMC11087760.
The exact form of at least one protein or probe is not confirmed. No signal at the amounts used counts as a negative.

Sequences of proteins named here, by UniProt entry; tags and fusion partners are left off. A change or cut given only in a name is not applied to a line headed by its entry.
UniProt P41546: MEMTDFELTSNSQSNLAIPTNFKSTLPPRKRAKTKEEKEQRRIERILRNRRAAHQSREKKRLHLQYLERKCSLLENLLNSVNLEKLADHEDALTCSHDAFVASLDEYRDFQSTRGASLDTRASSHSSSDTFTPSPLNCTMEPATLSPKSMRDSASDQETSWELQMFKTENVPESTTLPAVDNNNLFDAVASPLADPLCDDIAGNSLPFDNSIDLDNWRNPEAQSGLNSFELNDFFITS

Target: GST-Hac1 (Saccharomyces cerevisiae) (UniProt P41546)
Assay: EMSA
Details: Beyotime Chemiluminescent EMSA Kit per manufacturer, probes annealed in 10 mM Tris-HCl pH 8.0, 1 mM EDTA, binding buffer, salt and temperature not stated, recombinant protein, protein details: GST, label: 5' biotin

| Sequence | binding result (higher affinity than UPRE2) | further results |
| --- | --- | --- |
| GCGAAAAGGATTACGTGTCCTCAAAATCTC (double strand) [m84 probe] | binds | – |
| GCGAAGCGGTTTACGTGTCAAAAGTGTCTC (double strand) [m94 probe] | binds | – |
| GCGATACGGAGTACGTGTCATAAAAACCTC (double strand) [UPRE2 probe] | – | binding result (lower affinity than m82, m84, m86, m94): binds |
| GCGCAGTGGGTTACGTGTCATCAGAGCCTC (double strand) [m86 probe] | binds | – |
| GCGCCTTCTATTACCTTCTGCTCTCTCCTC (double strand) [TDH3 probe] | – | binding result: no binding |
| GCGTTTACGGGTACGTGTCCTCAAAAGCTC (double strand) [m82 probe] | binds | – |
